PubChem BioAssay AID504808 – Drosophila RNAi Screening Center | 2011
In all, the deposit lists about 21,000 reagents; this is a random part of those with a known target gene and a result. Over the whole deposit, 18 (0.084%) were called active. 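Raw counts without plate normalisation, one of two replicates; the ratio scores behind the calls were not deposited.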 A number with no mark means an inactive call. Reagent sequences are not shown. Not given: the amount of reagent, the time to read-out.

Screen: 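Genes whose loss lifts activity of an E2F-responsive reporter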 (primary screen)
System: Drosophila S2 cells
Reagents: long dsRNA against Drosophila genes
Read-out: 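Dual luciferase plate measurements; E2F-specific signal taken as firefly over Renilla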
Reading the numbers: E2F firefly: higher = more E2F reporter activity; Renilla normaliser: higher = more normaliser reporter signal
Call rule: 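Called active if the normalised E2F reporter went up by over 50%; the cutoff is arbitrary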

shn (schnurri) [DRSC05266] — E2F firefly, rep 1: 1.27e5; Renilla normaliser, rep 1: 5120
shn (schnurri) [DRSC07681] — E2F firefly, rep 1: 2596; Renilla normaliser, rep 1: 202
Bin1 (Bicoid interacting protein 1) [DRSC16843] — E2F firefly, rep 1: 1.13e5; Renilla normaliser, rep 1: 6445
cnir (cornichon related) [DRSC00499] — E2F firefly, rep 1: 1.56e5; Renilla normaliser, rep 1: 5343
Phf5a (PHD finger protein 5a) [DRSC03261] — E2F firefly, rep 1: 1.41e5; Renilla normaliser, rep 1: 5515
Pc (Polycomb) [DRSC11873] — E2F firefly, rep 1: 1.24e5; Renilla normaliser, rep 1: 6167
dbr (debra) [DRSC00274] — E2F firefly, rep 1: 74372; Renilla normaliser, rep 1: 3505
Krn (Keren) [DRSC11202] — E2F firefly, rep 1: 1.65e5; Renilla normaliser, rep 1: 8033

Not a retest: entries from further up.
shn (schnurri) [DRSC07681] — E2F firefly, rep 1: 2596; Renilla normaliser, rep 1: 202
Bin1 (Bicoid interacting protein 1) [DRSC16843] — E2F firefly, rep 1: 1.13e5; Renilla normaliser, rep 1: 6445
cnir (cornichon related) [DRSC00499] — E2F firefly, rep 1: 1.56e5; Renilla normaliser, rep 1: 5343

Next entries follow:
RnrL (Ribonucleoside diphosphate reductase large subunit) [DRSC03413] — E2F firefly, rep 1: 54487; Renilla normaliser, rep 1: 189
GILT1 (Gamma-interferon-inducible lysosomal thiol reductase 1) [DRSC16565] — E2F firefly, rep 1: 80384; Renilla normaliser, rep 1: 3316
CG12768 [DRSC11680] — E2F firefly, rep 1: 1.24e5; Renilla normaliser, rep 1: 5534
Tsp42Ed (Tetraspanin 42Ed) [DRSC05940] — E2F firefly, rep 1: 1.39e5; Renilla normaliser, rep 1: 4605
Ir21a (Ionotropic receptor 21a) [DRSC00528] — E2F firefly, rep 1: 1.51e5; Renilla normaliser, rep 1: 4977
CG10979 [DRSC12153] — E2F firefly, rep 1: 1.51e5; Renilla normaliser, rep 1: 6793
CG7568 [DRSC16259] — E2F firefly, rep 1: 1.26e5; Renilla normaliser, rep 1: 6027
D19B [DRSC11134] — E2F firefly, rep 1: 78407; Renilla normaliser, rep 1: 3417
CG17666 [DRSC10276] — E2F firefly, rep 1: 1.36e5; Renilla normaliser, rep 1: 7781
CG8757 [DRSC11039] — E2F firefly, rep 1: 1.36e5; Renilla normaliser, rep 1: 7838
Rtnl2 [DRSC12609] — E2F firefly, rep 1: 1.41e5; Renilla normaliser, rep 1: 6390
